Results as given in patent publication US20070166547A1, “Use of a layer consisting of hydrophobic linear, or two-dimensional polycyclic aromatics as a barrier layer or an encapsulation and electric components constructed with a layer of this type and comprising organic polymers” (priority 2003, published 2007).
At least one structure is not confirmed: it was looked up by name or label, or the drawing left a doubt.

Columns and labels:
[1] = tested on: adenosine-sensitive receptors of thrombocytes; test: ADP-induced aggregation of thrombocytes in vitro (Born method); type: cell-based, rabbit; details: 10^−6 M; 3 min incubation; ADP 10^−5 M
Procedure: The compounds according to the invention were studied for the effect of aggregation of thrombocytes induced by a preliminary introduction of a solution of an aggregation inductor with a competing introduction of the compounds according to the invention.
The aggregation of thrombocytes was studied by the Born method based on determination of the changes in the optical density of plasma enriched with thrombocytes after its incubation with an aggregation inductor.
Adenozinediphosphoric acid (ADP) was selected as an aggregation inductor, which in fact is an aggregation generator. Use was made of a sample (registration number 885) of the Sigma Diagnostics Company (USA) in final concentration of 10^−5 M. […]
The measurements of the optical density of the samples were made on two-channel aggregometer of the “Chronolog” Company (USA). […] The index of maximum amplitude of aggregation (MA) in percent of a fall of the plasma optical density under effect of the aggregation inductor was recorded. […]
The process of aggregation of thrombocytes was recorded with the help of a computer; on the monitor screen the there were depicted curves reflecting changes of the optical density of the plasma enriched which was taken as a standard 100% compared to the optical density of the non-thrombocyte plasma taken for 0% content of thrombocytes. […]

[2] = Polarographic study of electrochemical reduction (electrochemical activity); type: physicochemical; details: pH 7.2; 37° C.; forward trace; average for the group
Procedure: The study was carried out on a general-purpose polarograph PU-1 with a two-coordinate recorder of the “LKD” type using a three-electrode thermostatically controlled polarographic cell and mercury dripping electrode (MDE) with forced separation of the drop and a dropping period of 0.5 second. A platinum wire was used as an auxiliary electrode and a saturated calomel electrode (SCE) was used as a control electrode.
2.0% solutions of sodium chloride having pH 7.0, 7.2, 7.4, 7.6 were used as a background; the pH values of the background solution were corrected by a solution of sodium hydroxide. The polarographic cell was filled with 5.0 ml of the background solution and for 5 minutes was purged with nitrogen for removing the dissolved oxygen. Then 0.5 ml of solution of the studied substance was added to the background solution, and the polarogram was recorded as a polarographic wave. The concentration of the compounds in the polarographic cell was 9·10^−4 M.
The pH was measured on the pH-meter with an accuracy of ±0.05 pH units. The polarographic measurements were carried out at a temperature of 37° C. The recording of polarograms of the investigated materials was effected under conditions of DC current at a scanning rate of the potential 10.0 mV/s with a active scanning stroke from a potential 0 to −0.5 V and sweep retrace from a −0.5 V to 0. The electric-current sensitivity was 5.0 mkA. The scale by the coordinate of the potentials was 50.0 mV/cm. The values of potentials of the half-wave E1/2 of the investigated materials are given with respect to the SCE potential.
The polarogram parameters such as a limiting current ilim and E1/2 were determined by the graphic method. The number of electrons participating in the reaction was calculated on the basis of the analysis of the polarographic wave using the Geirovsky-Ilkovich equation.

[3] = Chronic toxicity, rectal suppositories: indexes of peripheral blood; details: male rats; suppositories 500 mg/kg; 1 month

Row | SMILES | −E1/2, V (half-wave potential vs SCE) [2] | other results
1 | Nc1cnc2c(=O)[nH][nH]c(=O)c2n1.[Na] [Compound 28, sodium salt of 2-amino-pyrazine[2,3-d]-6H-pyridazine-5,8-dione] |  | MA - drop of optical density, % compared to control [1]: 50.9 d 2.7%
2 | O=c1[nH]n([C@@H]2O[C@H](CO)[C@@H](O)[C@H]2O)c(=O)c2ncnc(O)c12.[Na] [Compound 33, sodium salt of 4-hydroxy-7-(β-D-ribofuranosile)pyrimido[4,5-d]-6H-pyridazine-5,8-dione] | 0.085+ ± 0.015 V | 
3 | O=C([O-])c1ncnc2c(=O)n([C@@H]3O[C@H](CO)[C@@H](O)[C@H]3O)[nH]c(=O)c12.[Na+] [Compound 34, sodium salt of 4-carboxy-7-(β-D-ribofuranosile)pyrimido[4,5-D]-6H-pyridazine-5,8-dione] |  | Coagulation, time [3]: 165% 10 seconds
4 | O=c1[nH][nH]c(=O)c2ncncc12.[Li] [Compound 35, lithium salt of pyrimido[4,5-d]-6H-pyridazine-5,8-dione] | 0.085+ ± 0.015 V | 
5 | Nc1ncc2c(=O)[nH][nH]c(=O)c2n1 [Compound 36, 2-amino-pyrimido[4,5-d]-6H-pyridazine-5,8-dione] | 0.085+ ± 0.015 V | 
